# Values of other authors, collected in patent US3988364A, “Novel N,N-di-substituted amidines and several acid-addition salts thereof” (Toyo Jozo Kabushiki Kaisha, priority 1972, dated 1976).
# For at least one compound, name, drawing or mass did not settle the structure.
# Conditions: in words; commonly known, clinical use; cited from earlier work
structure (smiles),measurement,value
"COc1ccc2c3c1O[C@H]1[C@@H](O)C=C[C@H]4[C@@H](C2)N(C)CC[C@@]341 [Compound 17, codeine phosphate, reference compound]",antitussive effect,strong effect
